# From the supplement of paper PMC6445147
# Single values of this data set are uncertain.
# B1: human tRNA-Pro; a variant is named by its letters at N, in order (parent)
# chain: GGCTCGTTGGTCTAGNGGTATGATTCTCGCTTAGGGTGCGAGAGGTCCCGGGTTCNNATCCCGGACGAGCCC
# Variants of: B1
# Assay: tRNA 5' processing efficiency (processed reads / all reads, maximum-likelihood estimate) (fraction); higher = more efficient 5' processing
# Settings: HEK293T; construct: CMV Pol-II promoter ((+)CMV library, decapped)
row,Variant,tRNA 5' processing efficiency
1,GTA T8C G15C G18C T54G,0.5
2,GTG G9C G17T A58T,0.09
3,GTC A14G C55T,0.25
4,ATC A14G G15C,0.17
5,GTT G17A T19G A20G C55T,0.07
6,GTC G9C G17C C55T,0.25
7,GTC A58T,0.25
8,GTG G18A T19A,0.33
9,TTA T8C G17C,0.33
10,GTA T8C G15C C55G T59A,0.13
11,TTC T19A T53A T59G,0.2
12,GTT G15A T19C T54A,0.25
13,GTG G18A T54A C55T,0.69
14,GTA T8G T19A,0.25
15,GTA T8A G9A G15T T19A C55T,0.33
16,GTC A14G G15C G17A T19G C55T,0.33
17,GTC G18T A58T T59G,0.25
18,GTG T53A A58G,0.4
19,GTA T19G T54A C55G,0.25
20,GTT G18C A20T,0.11

row,Variant,tRNA 5' processing efficiency
1,GTG G17A T19G,0.25
2,GTG G9T G18A T53G A58T,0.25
3,CTA T8G T19A,0.05
4,GTA T54G A58T,0.2
5,CTC C55G A58T,0.06
6,GTC A20T A58T T59A,0.5
7,GTT T8A G17T G18T A58G,0.33
8,GTA T8G T53G,0.25
9,GTG T19G T53C,0.2
10,GTA T54A T59G,0.2
11,TTA T53G,0.62
12,TTT G9C A14C G17A G18T,0.2
13,GTA T54A C55G,0.2
14,TTC G9A G18C,0.4
15,GTA T8G G9T A14T T19A,0.25
16,GTT T54C,0.25
17,ATT T8A T53C A58T,0.5
18,CTT C55G A58C,0.57
19,GTA T8G G15T G18A C55A T59G,0.33
20,GTT G51A A58C,0.25

# Looked up one by one from above:
row,Variant,tRNA 5' processing efficiency
9,GTG T19G T53C,0.2
10,GTA T54A T59G,0.2
